Test [1] concerns the target rat C7 protein (rat). In words: western blot, non-reduced rat serum. Background: In western blotting, separated proteins are transferred to a membrane and probed.
In test [2] the target is cynomolgus monkey C7 protein (cynomolgus monkey). Put plainly: western blot.
The target in test [3] is rat C7 protein (rat). Put plainly: western blot.
For test [4], the target named is cynomolgus monkey C7 protein (cynomolgus monkey). In words: direct ELISA, C7 coated on plate. A general note: An ELISA detects its analyte on a solid surface through an enzyme-linked reagent.
The target in test [5] is rat C7 protein (rat). In words: direct ELISA, C7 coated on plate.
Test [6] deals with rat C7 protein (rat). In words: SPR (Biacore). In general terms: Surface plasmon resonance follows binding to a sensor surface in real time, without labels.
Test [7] concerns the target rat C7 protein (rat). Put plainly: direct ELISA, rat C7 on the well, antibody titrated.
Test [8] addresses cynomolgus monkey C7 protein (cynomolgus monkey). Put plainly: western blot, non-reduced monkey serum.
The target of test [9] is rat C7 protein (rat). Put plainly: direct ELISA and sandwich ELISA.
Test [10] concerns the target rat C7 protein (rat). In words: western blot of serum, non-reducing conditions (no detection under reducing conditions).
The target of test [11] is rat C7 protein (rat). Put plainly: sandwich ELISA, 2H2 coated as capture, rat C7 titrated, goat anti-C7 as detection.
Test [12] concerns the target rat C7 protein (rat). Put plainly: sandwich ELISA, 2H2 coated as capture, rat C7 titrated, polyclonal anti-C7 as detection.
Test [13] has as its target rat C7 protein (rat). Put plainly: western blot of rat serum, non-reduced and reduced.
In test [14] the target is cynomolgus monkey C7 protein (cynomolgus monkey). In words: direct ELISA, cynomolgus C7 immobilised on the well ('C7 Cyno Capture'), antibody titrated.

Results are given in words; binding and its absence hold for the method and conditions named. A result given as binding can be weak or reduced; the word gives no strength.

B1: monoclonal anti-C7 antibody 73D1 (antibody, IgG2a, V domains shown)
VH: EVQLQQSGPELVKPGASVKMSCKASGYTFTDYNMHWVKQSHGKSLEWIGYINPNNGGPSYNQNFKGKATLTVNKSSSTAYMELRSLTSEDSAVYYCACGNYPDYWGQGTTLTVSS
VL: DIQMTQSPASLSASVGETVTITCRASGNIHNYLAWYQQKQGKSPQLLVYNAKTLADGVPSRFSGSGSGTQYSLKINSLQPEDFGSYYCQHFWSTPLTFGAGTKLELK
Turning to B1, the binding result (in the test with rat C7 protein (rat) [1]; in [2]; with rat C7 protein (rat) [3]; in test [4]; with rat C7 protein (rat) [5]; in the test with rat C7 protein (rat) [6]) was “binds” each time. The binding entry (in the test with rat C7 protein (rat) [7]; in [8]) was “binds” in each case.

B2: monoclonal anti-C7 antibody 2H2 (antibody, IgG2b, V domains shown)
VH: QVQLQQPGAELMKPGASVKLSCKASGYIFTSYWMHWVKQRPGRGLEWIGRIDPNSGGTNYNEKFKSKATLTVDKPSSTVYMKISSLTSEDSAVYYCAREHDYDYAMDYWGQGTSVTVSS
VL: DIVMTQAAPSVPVTPGESVSISCRSSKSLLHSNGNTYLYWFLQRPGQSPQLLIYRMSNLASGVPDRFSGSGSGTAFTLRISRVEAEDVGVYYCMQHLEYPFTFGSGTKLEIK
For the molecule B2, the binding entry (in the test with rat C7 protein (rat) [1]; in test [2]; with rat C7 protein (rat) [3]; in test [4]; with rat C7 protein (rat) [5]; with rat C7 protein (rat) [9]) was “binds” each time. For the same molecule, the binding entry (with rat C7 protein (rat) [10]; in the test with rat C7 protein (rat) [11]; with rat C7 protein (rat) [7]; with rat C7 protein (rat) [12]; in [8]; in the test with rat C7 protein (rat) [13]) was “binds” in each case.

B3: monoclonal anti-C7 antibody 17E7 (antibody, IgG2a, V domains shown)
VH: EVQLQQSGTVLARPGASVKMSCKTSGYSFTTYWMHWVKQRPGQGLEWIGAIYPGNSDTYYSQKFKDKAKLTAVTSASTAYMELSSLTNEDSAVYYCTRSGGYDVGGLDYWGQGTTLTVSS
VL: DIVMTQSPATLSVTPGDGVSLSCRASQSISDYLHWYQQKSHESPRLLIKFASQSISGIPSRFSGSGSGSDFTLSINSVEPEDVGMYYCQNGHSFPFTFGSGTKLELK
Take B3: the binding result in test [4] is “binds”; in test [14] it was “binds”; in the test with rat C7 protein (rat) [7] it was “no binding (tested: 10 µg/ml)”.
